From article PMC10916400, “Effect of the aggregated protein dye YAT2150 on Leishmania parasite viability” (Antimicrobial Agents and Chemotherapy, 2024)

Tested on: L. infantum promastigotes
Assay type: cell-based, Leishmania infantum
Conditions: for Selectivity index (CC50/IC50): CC50 in human umbilical vein endothelial cells / IC50 for promastigotes; for fold by which the IC50 of YAT2150 is lower than that reported in promastigotes for the antileishmanial agent: YAT2150 IC50 0.52 µM vs reported IC50 of pentamidine (34), miltefosine (35), paromomycin (36)
Description: L. infantum (MHOM/ES/2016/CATB101) promastigotes were maintained at 26°C in complete Schneider’s medium (Schneider’s insect medium supplemented with 10% FBS, 25 µg/mL gentamycin, 1% penicillin-streptomycin, and 1% sterile human urine, pH 6.7). For growth inhibition assays, promastigotes were used in the logarithmic growth phase, whereas for the infection of macrophages and generation of amastigotes they were used in the stationary phase. Axenic amastigotes were obtained following established protocols ([40], [57][–][59]); briefly, 1 × 10^7 promastigotes/mL in stationary phase were cultured in Schneider’s insect medium supplemented with 20% FBS, 25 µg/mL gentamycin, and 3.9 g/L of 2-(N-morpholino)ethanesulfonic acid, at pH 5.4 and 37°C. After 48 h, the typical rounded morphology of axenic amastigotes and their flagellum shortening could be observed. This culture was used within a week after its preparation.
In 96-well microtiter plates (Nunclon Delta surface; Thermo Fisher Scientific Inc.), serial dilutions (1:2) of the drugs or peptides were performed, either free or loaded in nanoformulations, in 100 µL of complete Schneider’s medium, to which one volume of 2 × 10^6 logarithmic growth-phase L. infantum promastigotes/mL in the same buffer was added. After 48 h, resazurin sodium salt was incorporated at a final concentration of 0.00125% and the plates were incubated at 26°C for another 24 h, when fluorescence from resorufin was measured as described above.

## CC1=CC2Cc3nc4cc(Cl)ccc4c(NCCCCCCCNc4c5c(nc6ccccc46)CCCC5)c3C(C1)C2 (stereo not drawn) [HUP7TH]
  Selectivity index (CC50/IC50): 6.4

## CC1=CC2Cc3nc4ccccc4c(NCCCCCCCCCCNc4c5c(nc6ccccc46)CCCC5)c3C(C1)C2 (stereo not drawn) [HUPH10TH]
  Selectivity index (CC50/IC50): 4.7

## CC1=CC2Cc3nc4cc(Cl)ccc4c(NCCCN(C)CCCNc4c5c(nc6ccccc46)CCCC5)c3C(C1)C2 (stereo not drawn) [HUPNTH]
  Selectivity index (CC50/IC50): 1.4

## CCCCCCCCCCCCCCCCOP(=O)([O-])OCC[N+](C)(C)C [miltefosine, reference compound]
  fold by which the IC50 of YAT2150 is lower than that reported in promastigotes for the antileishmanial agent: ~20 fold

## NC[C@@H]1O[C@H](O[C@H]2[C@@H](O)[C@H](O[C@@H]3[C@@H](O)[C@H](N)C[C@H](N)[C@H]3O[C@H]3O[C@H](CO)[C@@H](O)[C@H](O)[C@H]3N)O[C@@H]2CO)[C@H](N)[C@@H](O)[C@@H]1O [paromomycin, reference compound]
  fold by which the IC50 of YAT2150 is lower than that reported in promastigotes for the antileishmanial agent: ~542 fold

## N=C(N)c1ccc(OCCCCCOc2ccc(C(=N)N)cc2)cc1 [pentamidine, reference compound]
  fold by which the IC50 of YAT2150 is lower than that reported in promastigotes for the antileishmanial agent: ca. 54 fold
